# Results: publication PMC4330362, “The ATP-mediated formation of the YgjD–YeaZ–YjeE complex is required for the biosynthesis of tRNA t^6A in Escherichia coli” (Nucleic Acids Research, 2015)
# No constants are given. Whether binding was seen depends on the method and setting.
# Legend:
# [1] = molecular target: YgjD^F100E (Escherichia coli K-12) (UniProt P05852); assay: SEC; HiLoad 16/60 Superdex 75 pg; single proteins and equimolar mixture; both purified
# [2] = molecular target: YgjD^S97E (Escherichia coli K-12) (UniProt P05852); assay: as above
# [3] = molecular target: YgjD^S97R (Escherichia coli K-12) (UniProt P05852); assay: as above
# [4] = molecular target: YgjD^F100E (Escherichia coli K-12) (UniProt P05852); assay: native gel or EMSA; 1.2% agarose native gel, 30 mM Tris–HCl pH 8.0, 50 mM glycine, on ice (ambient 8°C), Coomassie staining; no nucleotide added; molar ratio 1:1; both purified
# [5] = molecular target: YgjD^S97E (Escherichia coli K-12) (UniProt P05852); assay: as above
# [6] = molecular target: YgjD^S97R (Escherichia coli K-12) (UniProt P05852); assay: as above
# [7] = molecular target: YgjD^S97E (Escherichia coli K-12) (UniProt P05852); assay: ITC; YgjD as 'titrant' (20-30 uM), YeaZ as 'injectant' (200-360 uM); in absence of nucleotides (ADP or ATP); both purified
# [8] = molecular target: YgjD^S97E (Escherichia coli K-12) (UniProt P05852); assay: SEC + other: SAXS; HPLC gel filtration coupled to SAXS; in presence of 1.0 mM ATP and 2.0 mM MgCl2; YgjD–YeaZ and YjeE mixed 1:4; both purified
# [9] = molecular target: YgjD (TsaD) (Escherichia coli K-12) (UniProt P05852); assay: native gel or EMSA; 1.2% agarose native gel, 30 mM Tris–HCl pH 8.0, 50 mM glycine, on ice (ambient 8°C), Coomassie staining; no nucleotide added; molar ratio 1:1; both purified
# [10] = molecular target: YeaZ (TsaB) (Escherichia coli K-12) (UniProt P76256); assay: as above
molecule,measurement,setting,value
YeaZ (TsaB) (from UniProt P76256 1-231),binding,[1],no binding
same,binding,[2],no binding
same,binding,[3],no binding
same,binding,[4],no binding
same,binding,[5],no binding
same,binding,[6],no binding
same,binding,[7],no binding
YgjD^F100E (from UniProt P05852 1-337) (enzyme),binding,[1],no binding
YgjD^S97E (from UniProt P05852 1-337) (enzyme),binding,[8],no binding
same,binding,[2],no binding
YgjD^S97R (from UniProt P05852 1-337) (enzyme),binding,[3],no binding
"YrdC (TsaC) (enzyme, UniProt P45748 1-190) MNNNLQRDAIAAAIDVLNEERVIAYPTEAVFGVGCDPDSETAVMRLLELKQRPVDKGLILIAANYEQLKPYIDDTMLTDVQRETIFSRWPGPVTFVFPAPATTPRWLTGRFDSLAVRVTDHPLVVALCQAYGKPLVSTSANLSGLPPCRTVDEVRAQFGAAFPVVPGETGGRLNPSEIRDALTGELFRQG",binding,[9],no binding
same,binding,[10],no binding
